Results on 58 compounds are retold here after PubChem BioAssay AID2685 (National Center for Advancing Translational Sciences (NCATS), 2010).

A word on the AC50: it is the concentration giving half of the maximal activity seen. High values mean activity only at high concentration, low ones activity at low concentration.

The list shows a part of the results. Further columns of the screen follow, without active or inactive calls. Most of these compounds were active or inconclusive in the main read-out, so they are no random draw. Potencies come from curve fits of mixed quality, noted in brackets.

A short description of this assay: qHTS Assay for Lipid Storage Modulators in Drosophila S3 Cells.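 As to cell number change: cells counted by Cell Tracker Red CMTPX staining in the red channel.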 Conditions: BODIPY lipid droplet fluorescence, 18-24 h; for cell number change: measured here: cell count max response, cells fed with added oleic acid. The method, boiled down:
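Laser-scanning cytometry quantifies lipid droplet accumulation (500–530 nm total intensity; droplet/cell object ratio) in oleic acid-fed (400 uM added) Drosophila S3 cells treated with a concentration series. 20 uM Triacsin C defined 100% inhibition.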
(In general: qHTS replaces the single test concentration by a dilution series.)

The mark [1] stands for this setting: measured here: cell number channel AC50, cells fed with added oleic acid.
The mark [2] stands for this setting: measured here: lipid fluorescence (Fed channel) AC50, cells fed with added oleic acid.

Regarding `CN1CCN(CCCNC(=O)c2cc3c(-c4ccc(Cl)cc4)nn(C)c3s2)CC1`, the cell number change came to 31.8%. Further, the AC50 under setting [1] was 29.1 µM [rising, single point]. The AC50 under setting [2] is 16.4 µM [falling, single point].
For `CCC(=O)c1ccc(OCC(=O)Nc2ccc(N3CCOCC3)cc2N2CCOCC2)cc1`, the cell number change was -47.3%. Further, under setting [1], the AC50 is 1.64 µM [falling, full curve]. Under setting [2], the AC50 was 1.64 µM [falling, full curve].
Consider `O=C(Nc1cccc(S(=O)(=O)N2CCCCCC2)c1)C1CCN(C(=O)c2ccc(Cl)cc2)CC1`, for which the cell number change came out at 12.9%. For the same compound, the AC50 under setting [2] was 1.16 µM [rising, full curve].
On to `Cc1cc(C)cc(N(CC(=O)NCc2cccnc2)S(C)(=O)=O)c1`, for which the cell number change was 8.99%. The AC50 under setting [2] is 29.1 µM [rising, single point].
With `CCn1c(=O)cc(OCC(=O)NCCCN2CCN(c3cccc(Cl)c3)CC2)c2ccccc21`, the cell number change was -3.03%. Further, the AC50 under setting [2] was 5.8 µM [rising, single point].
For the compound `CC(C)Oc1ccc(S(=O)(=O)N2CCCCC2)cc1NC(=O)C1CCCC1`, the cell number change is -1.38%. In addition, the half-maximal activity concentration (AC50) under setting [2] was 11.6 µM [rising, single point].
Regarding `Cn1c(=O)c2c(ncn2CC(O)CNc2ccc(Cl)cc2)n(C)c1=O` (stereo not given), the cell number change came out at 19.6%. The AC50 under setting [1] is 0.00517 µM [rising, full curve, poor fit].
`CCC1=Nc2cc(C(=O)N3CCCCC3)ccc2Sc2ccc(C)cc21`: the cell number change was 23.3%. Besides, under setting [2], the AC50 is 29.1 µM [rising, single point].
As for `O=C(c1cccs1)N(c1ccc(Cl)cc1)C1C=CS(=O)(=O)C1` (stereo not given), the cell number change is -2.16%. Besides, the AC50 under setting [1] was 0.146 µM [falling, single point]. In addition, under setting [2], the AC50 was 0.146 µM [falling, full curve, poor fit].
For `CC(=O)c1c(N2CCN(c3cccc(Cl)c3)CC2)nc(=S)n(-c2ccccc2)c1C`, the cell number change was -2.42%.
On to `O=C(COC(=O)c1ccccc1F)c1ccc(-n2nncc2-c2ccco2)cc1`, for which the cell number change was -5.05%.
Take `COc1cccc(C(=O)N(Cc2cc3cc(C)ccc3[nH]c2=O)CC2CCCO2)c1` (stereo not given): the AC50 is, setting by setting: under setting [1], 0.517 µM [rising, full curve]; under setting [2], 1.84 µM [rising, partial curve].
With `CCOc1ccc(NC(=O)C2=NN(c3ccccc3)C(=O)CC2)cc1S(=O)(=O)N1CCCCC1`, the cell number change was 4.33%. Under setting [2], the concentration at half-maximal activity (AC50) is 0.82 µM [rising, single point].
`Cc1csc(NC(=O)CSc2nnc(-c3ccco3)n2C)n1`: the cell number change came out at 2.91%. For the same compound, under setting [2], the concentration at half-maximal activity (AC50) was 0.00461 µM [rising, full curve, poor fit].
As to `Oc1ccc(NC(=S)Nc2ccc(F)cc2)cc1`, the cell number change was -7.69%. Further, under setting [2], the half-maximal activity concentration (AC50) is 6.51 µM [falling, single point].
For `CC(C)(C)c1ccc(Oc2ccc(NC(=O)c3ccco3)cn2)cc1`, the cell number change was -24.1%. The AC50 under setting [2] was 29.1 µM [falling, single point].
With `COc1ccc(NC(=O)CCOc2ccc(C)cc2)cc1S(=O)(=O)N1CCOCC1`, the cell number change amounted to 8.74%. Moreover, under setting [2], the AC50 was 0.116 µM [falling, full curve, poor fit].
For the compound `CC(C)(C)c1ccc(OCc2ccc(C(=O)N3CCOCC3)o2)cc1`, the cell number change was -47.4%. In addition, the AC50 under setting [1] was 20.6 µM [falling, single point]. Moreover, under setting [2], the AC50 is 18.4 µM [falling, single point].
In the case of `O=C(CSc1ccccc1)Nc1ccc2c(c1)OCO2`, the cell number change came to 15.9%.
In the case of `COc1ccc(OC)c(C(=O)NC2CC(C)(C)Cc3c2cnn3-c2ccccc2)c1` (stereo not given), the cell number change was 1.79%.
Consider `Cc1ccc(-n2cc(CN(C)Cc3ncc[nH]3)c(-c3cccc(C)c3)n2)cc1`, for which the cell number change was -32.4%. For the same compound, the AC50 under setting [1] is 29.1 µM [falling, single point]. Besides, the AC50 under setting [2] was 20.6 µM [falling, partial curve].
Regarding `COc1ccc(C(=O)Nc2ccc(S(=O)(=O)Nc3nccc(C)n3)cc2)cc1OC`, the cell number change came to 49.8%. Also, under setting [1], the AC50 was 9.2 µM [rising, partial curve, poor fit].
Regarding `CC1CC(C)(C)CC2(C1)NC(=O)N(CC(=O)N1CCN(Cc3ccc(C#N)cc3)CC1)C2=O` (stereo not given), the cell number change was -54.5%. The AC50 under setting [1] is 1.84 µM [falling, full curve].
As to `CCC(=O)c1ccccc1OCC(=O)Nc1c(C)cccc1C`, the AC50 under setting [2] was 3.26 µM [falling, single point].
Regarding `O=C(N[C@@H](c1ccccc1)[C@@H]1C[C@H]1C(=O)O)OCc1ccccc1`, under setting [2], the AC50 is 29.1 µM [rising, single point].
As to `O=C(CSCC(=O)N1CCCc2ccccc21)Nc1nc(-c2ccccc2)cs1`, the cell number change is -46.5%. Also, the AC50 under setting [1] was 29.1 µM [falling, single point]. Further, under setting [2], the AC50 was 9.2 µM [falling, partial curve, poor fit].
In the case of `O=C1N=C(N2CCCCC2)SC1=C1CCCC1`, the cell number change was determined as 8.63%. Besides, the AC50 under setting [1] is 4.11 µM [rising, single point].
As to `COc1ccc(CCNC(=O)C2CCC(=O)N(C3CC3)C2)c(OC)c1` (stereo not given), the cell number change was -15.8%. Besides, the AC50 under setting [2] was 6.51 µM [falling, single point].
For `Cc1cccc(C(=O)N[C@H](C(=O)Nc2nc3ccccc3[nH]2)C(C)C)c1`, the cell number change is -49.5%. For the same compound, the AC50 under setting [1] was 29.1 µM [falling, single point].
Regarding `COc1ccccc1NC(=O)c1c(O)c2ccccc2[nH]c1=O`, the cell number change came out at 21.5%. Also, the half-maximal activity concentration (AC50) under setting [2] was 7.31 µM [rising, partial curve, poor fit].
On to `CC1CC(c2ccccc2)NS(=O)(=O)O1` (stereo not given), for which the cell number change was determined as 28.4%. Further, under setting [1], the AC50 is 0.517 µM [rising, full curve, poor fit]. Also, the concentration at half-maximal activity (AC50) under setting [2] was 0.651 µM [rising, full curve].
In the case of `COC(=O)CNC(c1ccccc1)c1cc(Br)ccc1N` (stereo not given), the cell number change is 7.25%.
As for `CCOC(=O)c1ccc(NC(=O)c2cc(OC)c(OC)c(OC)c2Br)cc1`, the cell number change amounted to 2.22%. The AC50 under setting [2] was 0.0651 µM [rising, full curve, poor fit].
Regarding `CCOc1ccc(CCNC(=O)CS(=O)(=O)Cc2nc(-c3cccc(OC)c3)oc2C)cc1`, the cell number change turned out to be 31.7%. The AC50 under setting [1] was 18.4 µM [rising, single point]. Besides, under setting [2], the AC50 is 6.51 µM [falling, single point].
Regarding `CCCNC(=O)CN(C)CC(=O)Nc1ccccc1C#N`, the concentration at half-maximal activity (AC50) under setting [1] was 1.3 µM [rising, full curve].
As for `COc1cc(/C(C)=N/NC(=O)c2nnn(-c3nonc3N)c2-c2cccs2)ccc1O`, the cell number change was -1.18%. In addition, the concentration at half-maximal activity (AC50) under setting [2] was 0.13 µM [rising, full curve, poor fit].
As to `C=CCn1c(P(=O)(O)c2ccccc2)nc2ccccc21`, the cell number change was -35.4%. The AC50 under setting [1] is 14.6 µM [falling, partial curve].
In the case of `CC(NS(=O)(=O)c1ccccc1)C(=O)NCc1ccco1` (stereo not given), the cell number change came out at 7.52%.
On the same count and under the same terms, in the case of `Cc1ccc(C(=O)Nc2ccc(O)c(C(=O)O)c2)o1` it was 7.65%.
As to `Cc1c(Cl)cn2c(=O)cc(CN3CCN(c4ccc(F)cc4)CC3)nc2c1Cl`, the cell number change turned out to be 34%. Moreover, the AC50 under setting [1] was 1.16 µM [rising, partial curve]. Besides, the concentration at half-maximal activity (AC50) under setting [2] was 1.3 µM [rising, full curve, poor fit].
Take `CC/C(O)=C1\C(=O)CC(c2ccccc2)CC1=NC(C)C` (stereo not given): the AC50 under setting [2] is 10.3 µM [rising, partial curve].
For `Cc1cc(C)c(S(=O)(=O)N2CCN(CCN3C(=O)c4cccc5cccc(c45)C3=O)CC2)cc1[N+](=O)[O-]`, the cell number change amounted to 41.6%. Further, the AC50 under setting [1] was 23.1 µM [rising, single point]. Further, the AC50 under setting [2] is 23.1 µM [rising, single point].
As for `COc1ccc2nc(C)cc(Sc3nc4ccccc4s3)c2c1`, the AC50 under setting [1] was 0.00461 µM [rising, full curve, poor fit].
For the compound `O=C(CSCc1c(F)cccc1Cl)NCc1cccnc1`, the cell number change was determined as 3.65%.
For the compound `N=c1c[n+](-c2ccc(Cl)cc2)[n-]o1`, the cell number change was -0.342%. Further, the AC50 under setting [2] is 23.1 µM [rising, single point].
With `CC(Oc1cc2oc(=O)c3c(c2cc1Cl)CCC3)C(=O)NCc1cccnc1` (stereo not given), the cell number change is -34.4%. In addition, the AC50 under setting [1] was 29.1 µM [falling, single point]. Besides, the AC50 under setting [2] is 14.6 µM [falling, partial curve, poor fit].
Take `CCOc1ccc(NC(=O)CN(C2CCCCC2)S(C)(=O)=O)cc1`: the cell number change came out at 7.96%. Besides, the concentration at half-maximal activity (AC50) under setting [2] was 2.31 µM [rising, partial curve].
In the case of `CCOC(=O)C1CCN(C(=O)COC(=O)CNC(=O)c2ccc(OC)cc2)CC1`, the cell number change was 25.3%. The half-maximal activity concentration (AC50) under setting [1] was 6.51 µM [rising, single point]. Also, the AC50 under setting [2] was 6.51 µM [rising, partial curve].
For the compound `CC(C)(C)CC(C)(C)NC(=O)CSCC(=O)Nc1ccc2ccccc2c1`, the cell number change is -78.3%. Further, the AC50 under setting [1] was 8.2 µM [falling, partial curve]. Moreover, the AC50 under setting [2] was 1.46 µM [falling, full curve, poor fit].
For the compound `O=C1CC(CCC(=O)NC2CC2)c2ccccc2N1` (stereo not given), the cell number change came out at 1.49%. Moreover, the AC50 under setting [2] is 0.0651 µM [rising, full curve, poor fit].
Turning to `CC1=NN(c2nc(-c3ccc(Cl)cc3)cs2)C(=O)C1`, the cell number change is -33.1%. Besides, the AC50 under setting [1] is 1.46 µM [falling, full curve, poor fit].
With `CC(=O)c1ccc(Sc2nnc(C)s2)c([N+](=O)[O-])c1`, the cell number change was -14.7%. For the same compound, the AC50 under setting [2] was 8.2 µM [falling, partial curve, poor fit].
As for `CCOc1ccccc1-n1c(SCC(=O)N(CC)CC)nnc1-c1ccccn1`, the cell number change was -5.01%. For the same compound, under setting [1], the concentration at half-maximal activity (AC50) is 0.164 µM [falling, full curve, poor fit]. The concentration at half-maximal activity (AC50) under setting [2] is 0.146 µM [falling, full curve, poor fit].
Consider `CSc1cccc(NC(=O)COc2ccccc2C)c1`, for which the cell number change was determined as 4.07%.
As for `CCOC(=O)C(C)Oc1cccc2c(=O)n(CC(=O)N3CCN(C(=O)OCC)CC3)ccc12` (stereo not given), the cell number change is -6.59%. Also, under setting [2], the AC50 is 2.91 µM [rising, full curve].
`Cc1cc(C)cc(NC(=O)c2ccc(NC3=NC4CS(=O)(=O)CC4S3)cc2)c1` (stereo not given): the cell number change came to 13.3%. For the same compound, the AC50 under setting [2] was 6.51 µM [rising, single point].
For `CCN(CC)S(=O)(=O)c1ccc(NC(=S)NC(=O)C(C)C)cc1`, the cell number change was -16.2%. Under setting [2], the AC50 was 0.00461 µM [falling, full curve, poor fit].
With `C=CCN=C1CCCc2c1[nH]c1ccc(C)cc21`, the cell number change is -38.5%.
